The list shows a part of the results.
What was measured:
Assay in all cases: log2 fold change, soluble protein after heating vs DMSO (PISA); higher = thermal stabilisation; K562 lysate, 10 uM; active = over 0.2 and 3.5 SD of the protein, either way, in both replicates (recomputed)
lapatinib = compound: CS(=O)(=O)CCNCc1ccc(-c2ccc3ncnc(Nc4ccc(OCc5cccc(F)c5)c(Cl)c4)c3c2)o1 [lapatinib]
How it was run: (§1)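 K562 pellets were dounce-homogenised in PBS pH 7.4 containing 1 mM MgCl2, and the crude extract, at 1 mg/mL protein, was exposed to 10 μM compound for 30 min. Aliquots were heated for 3 min across 48°C-58°C, pooled, brought to 0.5% NP-40 at 4°C and spun at 21,000xg for 90 min, with the supernatant taken as soluble protein. TMTpro 16plex LC-MS/MS with equalised channel sums quantified that protein. Values are log-two fold changes in thermal stability relative to solvent controls, taken from duplicates.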

Sequences of proteins named here, by UniProt entry; tags and fusion partners are left off. A change or cut given only in a name is not applied to a line headed by its entry.
UniProt O60524: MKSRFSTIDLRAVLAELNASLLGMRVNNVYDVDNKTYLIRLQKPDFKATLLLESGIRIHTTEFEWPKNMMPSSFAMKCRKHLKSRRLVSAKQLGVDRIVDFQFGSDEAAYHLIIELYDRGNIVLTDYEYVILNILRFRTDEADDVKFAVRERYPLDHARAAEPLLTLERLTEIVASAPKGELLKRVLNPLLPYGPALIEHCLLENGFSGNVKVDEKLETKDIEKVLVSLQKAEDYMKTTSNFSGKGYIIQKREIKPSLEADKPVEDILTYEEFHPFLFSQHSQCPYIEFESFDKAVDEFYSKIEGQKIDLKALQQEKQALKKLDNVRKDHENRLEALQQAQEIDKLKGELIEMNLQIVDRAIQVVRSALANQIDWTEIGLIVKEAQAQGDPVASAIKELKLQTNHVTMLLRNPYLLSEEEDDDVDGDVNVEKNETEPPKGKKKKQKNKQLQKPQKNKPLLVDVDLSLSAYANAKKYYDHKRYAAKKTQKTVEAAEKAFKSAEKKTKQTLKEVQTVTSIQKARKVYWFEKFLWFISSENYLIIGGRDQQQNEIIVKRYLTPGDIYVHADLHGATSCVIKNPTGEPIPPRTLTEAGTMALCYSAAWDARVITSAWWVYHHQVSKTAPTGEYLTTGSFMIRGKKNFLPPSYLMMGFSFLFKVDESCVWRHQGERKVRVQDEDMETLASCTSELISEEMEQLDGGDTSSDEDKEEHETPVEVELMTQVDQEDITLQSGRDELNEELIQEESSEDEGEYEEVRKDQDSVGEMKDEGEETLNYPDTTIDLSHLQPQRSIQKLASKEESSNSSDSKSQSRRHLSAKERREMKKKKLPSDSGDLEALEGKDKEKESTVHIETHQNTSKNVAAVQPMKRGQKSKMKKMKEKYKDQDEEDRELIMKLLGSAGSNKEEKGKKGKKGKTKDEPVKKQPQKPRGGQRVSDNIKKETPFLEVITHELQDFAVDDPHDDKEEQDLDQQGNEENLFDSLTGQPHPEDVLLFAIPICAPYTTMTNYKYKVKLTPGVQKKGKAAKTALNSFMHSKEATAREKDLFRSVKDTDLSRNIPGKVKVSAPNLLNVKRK
UniProt Q14934: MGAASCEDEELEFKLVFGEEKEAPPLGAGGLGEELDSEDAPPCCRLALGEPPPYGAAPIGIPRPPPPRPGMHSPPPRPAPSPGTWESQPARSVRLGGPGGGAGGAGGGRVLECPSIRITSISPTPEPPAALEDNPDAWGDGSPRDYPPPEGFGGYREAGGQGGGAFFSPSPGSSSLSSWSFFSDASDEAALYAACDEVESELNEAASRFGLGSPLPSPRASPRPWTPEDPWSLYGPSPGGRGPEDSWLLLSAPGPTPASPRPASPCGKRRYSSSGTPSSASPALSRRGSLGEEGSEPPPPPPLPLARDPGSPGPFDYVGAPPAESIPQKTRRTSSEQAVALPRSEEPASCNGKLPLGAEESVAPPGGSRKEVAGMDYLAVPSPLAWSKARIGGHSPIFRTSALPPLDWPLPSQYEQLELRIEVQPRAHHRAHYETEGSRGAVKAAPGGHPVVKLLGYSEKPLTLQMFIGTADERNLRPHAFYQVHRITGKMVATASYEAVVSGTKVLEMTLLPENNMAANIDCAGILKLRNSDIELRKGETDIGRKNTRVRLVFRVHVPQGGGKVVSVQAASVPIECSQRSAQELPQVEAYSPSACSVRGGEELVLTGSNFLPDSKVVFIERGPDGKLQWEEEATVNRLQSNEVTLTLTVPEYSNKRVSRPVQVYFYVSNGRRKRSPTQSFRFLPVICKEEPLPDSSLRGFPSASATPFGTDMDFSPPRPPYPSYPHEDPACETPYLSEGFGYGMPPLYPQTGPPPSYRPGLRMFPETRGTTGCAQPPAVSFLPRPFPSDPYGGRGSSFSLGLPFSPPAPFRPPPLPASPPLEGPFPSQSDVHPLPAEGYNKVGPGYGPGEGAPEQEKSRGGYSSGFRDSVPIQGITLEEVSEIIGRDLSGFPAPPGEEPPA
UniProt Q9Y221: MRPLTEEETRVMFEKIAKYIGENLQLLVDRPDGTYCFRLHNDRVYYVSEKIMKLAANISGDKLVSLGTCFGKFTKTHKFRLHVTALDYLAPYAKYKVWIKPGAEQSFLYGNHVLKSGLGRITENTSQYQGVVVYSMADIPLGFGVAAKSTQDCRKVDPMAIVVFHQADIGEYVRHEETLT
UniProt Q96PY6: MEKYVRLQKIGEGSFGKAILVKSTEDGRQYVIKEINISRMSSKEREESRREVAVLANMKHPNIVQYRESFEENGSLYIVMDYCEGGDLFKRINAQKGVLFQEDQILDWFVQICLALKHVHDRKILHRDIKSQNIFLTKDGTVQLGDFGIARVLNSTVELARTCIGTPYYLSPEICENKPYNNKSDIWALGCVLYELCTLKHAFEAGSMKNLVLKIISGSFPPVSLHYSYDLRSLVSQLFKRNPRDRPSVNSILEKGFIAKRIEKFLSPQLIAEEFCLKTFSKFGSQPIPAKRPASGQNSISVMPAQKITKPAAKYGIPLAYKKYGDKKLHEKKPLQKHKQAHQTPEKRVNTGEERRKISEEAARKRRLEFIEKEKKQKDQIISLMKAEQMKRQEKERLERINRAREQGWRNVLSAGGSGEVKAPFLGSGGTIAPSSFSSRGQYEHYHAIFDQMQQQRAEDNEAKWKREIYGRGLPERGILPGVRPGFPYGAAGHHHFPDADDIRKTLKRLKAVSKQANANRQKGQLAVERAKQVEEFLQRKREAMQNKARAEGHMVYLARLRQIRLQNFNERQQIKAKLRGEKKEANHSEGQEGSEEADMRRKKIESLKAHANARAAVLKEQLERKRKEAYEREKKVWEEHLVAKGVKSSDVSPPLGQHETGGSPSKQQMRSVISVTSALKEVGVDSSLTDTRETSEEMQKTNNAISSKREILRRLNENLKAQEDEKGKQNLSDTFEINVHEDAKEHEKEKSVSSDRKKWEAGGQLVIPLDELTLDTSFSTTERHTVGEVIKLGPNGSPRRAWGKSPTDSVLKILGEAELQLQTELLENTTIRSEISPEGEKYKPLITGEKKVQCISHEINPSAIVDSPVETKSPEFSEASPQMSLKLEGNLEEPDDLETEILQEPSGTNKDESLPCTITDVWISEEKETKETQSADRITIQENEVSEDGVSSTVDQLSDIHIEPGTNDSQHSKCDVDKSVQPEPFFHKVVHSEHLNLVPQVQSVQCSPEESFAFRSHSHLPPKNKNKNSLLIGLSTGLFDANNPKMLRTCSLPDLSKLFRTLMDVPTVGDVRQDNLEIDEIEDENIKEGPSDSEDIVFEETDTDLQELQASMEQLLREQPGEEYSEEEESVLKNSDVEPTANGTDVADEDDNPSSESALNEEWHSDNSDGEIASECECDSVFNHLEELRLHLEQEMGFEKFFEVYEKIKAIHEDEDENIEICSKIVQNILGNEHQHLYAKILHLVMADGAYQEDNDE
UniProt Q8NCF5: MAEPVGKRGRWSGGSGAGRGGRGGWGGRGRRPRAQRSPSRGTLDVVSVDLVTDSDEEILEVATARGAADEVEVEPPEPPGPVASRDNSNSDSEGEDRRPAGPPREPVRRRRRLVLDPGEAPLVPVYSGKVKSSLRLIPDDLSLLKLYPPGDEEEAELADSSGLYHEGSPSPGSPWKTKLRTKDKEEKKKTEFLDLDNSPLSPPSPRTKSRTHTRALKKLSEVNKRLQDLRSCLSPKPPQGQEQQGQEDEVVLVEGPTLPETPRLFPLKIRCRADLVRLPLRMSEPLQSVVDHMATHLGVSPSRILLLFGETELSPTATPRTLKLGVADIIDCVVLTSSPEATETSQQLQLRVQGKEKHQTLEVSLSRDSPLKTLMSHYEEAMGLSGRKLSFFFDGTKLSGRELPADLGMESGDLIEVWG
UniProt Q5TEU4: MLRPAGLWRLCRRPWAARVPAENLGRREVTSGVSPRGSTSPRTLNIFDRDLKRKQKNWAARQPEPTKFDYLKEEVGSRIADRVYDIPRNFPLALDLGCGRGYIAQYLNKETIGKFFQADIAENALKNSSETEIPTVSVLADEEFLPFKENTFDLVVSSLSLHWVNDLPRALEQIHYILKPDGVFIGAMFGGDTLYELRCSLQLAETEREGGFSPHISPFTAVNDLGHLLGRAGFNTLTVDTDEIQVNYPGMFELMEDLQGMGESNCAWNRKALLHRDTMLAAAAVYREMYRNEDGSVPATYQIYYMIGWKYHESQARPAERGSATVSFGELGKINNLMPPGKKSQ
UniProt Q9UMX5: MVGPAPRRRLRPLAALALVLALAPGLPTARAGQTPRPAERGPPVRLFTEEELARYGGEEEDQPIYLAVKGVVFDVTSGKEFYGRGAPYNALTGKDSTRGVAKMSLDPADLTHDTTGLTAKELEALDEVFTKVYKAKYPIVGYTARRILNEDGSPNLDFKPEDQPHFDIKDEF
UniProt Q9NX24: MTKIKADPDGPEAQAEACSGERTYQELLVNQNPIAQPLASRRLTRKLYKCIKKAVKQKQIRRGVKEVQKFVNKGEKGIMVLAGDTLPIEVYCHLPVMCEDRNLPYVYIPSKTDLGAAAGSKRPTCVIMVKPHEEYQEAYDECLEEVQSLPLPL
UniProt Q9UFN0: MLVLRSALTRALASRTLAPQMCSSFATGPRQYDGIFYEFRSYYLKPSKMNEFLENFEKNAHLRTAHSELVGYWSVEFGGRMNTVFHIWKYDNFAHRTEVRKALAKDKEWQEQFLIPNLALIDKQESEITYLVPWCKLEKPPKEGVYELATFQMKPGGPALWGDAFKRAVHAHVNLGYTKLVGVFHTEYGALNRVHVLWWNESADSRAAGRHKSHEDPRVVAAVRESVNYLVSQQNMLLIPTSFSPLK
UniProt Q9Y697: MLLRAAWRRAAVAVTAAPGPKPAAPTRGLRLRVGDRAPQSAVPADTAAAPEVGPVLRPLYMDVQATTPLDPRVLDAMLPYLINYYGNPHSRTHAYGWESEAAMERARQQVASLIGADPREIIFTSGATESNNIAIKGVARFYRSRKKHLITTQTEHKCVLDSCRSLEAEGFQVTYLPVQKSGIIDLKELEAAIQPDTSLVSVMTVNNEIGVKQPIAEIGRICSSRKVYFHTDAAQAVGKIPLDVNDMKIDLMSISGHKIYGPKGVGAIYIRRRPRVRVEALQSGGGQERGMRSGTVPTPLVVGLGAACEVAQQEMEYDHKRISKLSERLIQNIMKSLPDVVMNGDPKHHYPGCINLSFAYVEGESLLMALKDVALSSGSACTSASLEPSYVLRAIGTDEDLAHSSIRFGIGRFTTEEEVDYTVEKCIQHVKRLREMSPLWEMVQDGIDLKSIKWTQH
UniProt Q15653: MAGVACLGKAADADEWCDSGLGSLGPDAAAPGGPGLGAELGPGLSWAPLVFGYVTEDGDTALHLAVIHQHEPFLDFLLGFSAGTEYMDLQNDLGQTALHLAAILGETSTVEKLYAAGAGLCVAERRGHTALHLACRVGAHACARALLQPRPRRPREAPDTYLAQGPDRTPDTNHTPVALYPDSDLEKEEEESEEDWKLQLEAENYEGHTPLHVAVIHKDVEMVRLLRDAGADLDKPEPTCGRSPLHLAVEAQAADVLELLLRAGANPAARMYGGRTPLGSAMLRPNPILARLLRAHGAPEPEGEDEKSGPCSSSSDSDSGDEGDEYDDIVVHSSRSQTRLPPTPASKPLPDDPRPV
UniProt Q9UI09, whole entry, looked up: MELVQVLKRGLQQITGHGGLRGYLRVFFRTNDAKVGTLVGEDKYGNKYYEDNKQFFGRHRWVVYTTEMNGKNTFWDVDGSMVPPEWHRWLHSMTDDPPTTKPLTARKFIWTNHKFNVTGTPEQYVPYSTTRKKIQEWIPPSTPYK
UniProt P52849: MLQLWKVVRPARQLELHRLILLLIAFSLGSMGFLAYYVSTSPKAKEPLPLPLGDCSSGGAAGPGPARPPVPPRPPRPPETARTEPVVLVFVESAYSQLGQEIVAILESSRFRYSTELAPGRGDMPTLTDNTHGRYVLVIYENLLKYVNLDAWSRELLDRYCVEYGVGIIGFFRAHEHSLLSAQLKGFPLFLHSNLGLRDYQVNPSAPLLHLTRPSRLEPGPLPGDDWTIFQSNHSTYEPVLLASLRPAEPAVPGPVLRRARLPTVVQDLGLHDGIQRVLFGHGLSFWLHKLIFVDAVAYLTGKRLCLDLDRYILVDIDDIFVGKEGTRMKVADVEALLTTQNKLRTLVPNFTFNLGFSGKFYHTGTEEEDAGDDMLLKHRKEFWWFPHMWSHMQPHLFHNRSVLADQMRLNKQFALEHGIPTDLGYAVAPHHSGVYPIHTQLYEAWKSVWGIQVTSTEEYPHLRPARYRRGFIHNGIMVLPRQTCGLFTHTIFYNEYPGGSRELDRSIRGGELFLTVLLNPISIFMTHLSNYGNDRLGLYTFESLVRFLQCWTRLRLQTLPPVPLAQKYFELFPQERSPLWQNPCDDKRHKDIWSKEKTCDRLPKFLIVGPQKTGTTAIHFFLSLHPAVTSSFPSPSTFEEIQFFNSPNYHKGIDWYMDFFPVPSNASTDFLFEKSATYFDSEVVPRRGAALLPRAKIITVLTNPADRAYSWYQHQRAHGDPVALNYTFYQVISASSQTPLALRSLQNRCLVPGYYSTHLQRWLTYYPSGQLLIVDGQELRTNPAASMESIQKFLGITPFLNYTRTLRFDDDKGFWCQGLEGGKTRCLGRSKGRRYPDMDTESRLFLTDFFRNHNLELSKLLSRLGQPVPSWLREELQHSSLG

pictilisib = compound: CS(=O)(=O)N1CCN(Cc2cc3nc(-c4cccc5[nH]ncc45)nc(N4CCOCC4)c3s2)CC1 [pictilisib]
How it was run: as §1

crizotinib = compound: C[C@@H](Oc1cc(-c2cnn(C3CCNCC3)c2)cnc1N)c1c(Cl)ccc(F)c1Cl [crizotinib]
How it was run: as §1

[1] = compound: C[C@H](C1=CC=C(C=C1)C(=O)NC2=C3C=CNC3=NC=C2)N
How it was run: as §1

duvelisib = compound: C[C@H](Nc1ncnc2nc[nH]c12)c1cc2cccc(Cl)c2c(=O)n1-c1ccccc1 [duvelisib]
How it was run: as §1

gandotinib = compound: Cc1cc(Nc2cc(CN3CCOCC3)c3nc(C)c(Cc4ccc(Cl)cc4F)n3n2)n[nH]1 [gandotinib]
How it was run: as §1

tozasertib = compound: Cc1cc(Nc2cc(N3CCN(C)CC3)nc(Sc3ccc(NC(=O)C4CC4)cc3)n2)n[nH]1 [tozasertib]
How it was run: as §1

doramapimod = compound: Cc1ccc(-n2nc(C(C)(C)C)cc2NC(=O)Nc2ccc(OCCN3CCOCC3)c3ccccc23)cc1 [doramapimod]
How it was run: as §1

bafetinib = compound: Cc1ccc(NC(=O)c2ccc(CN3CC[C@H](N(C)C)C3)c(C(F)(F)F)c2)cc1Nc1nccc(-c2cncnc2)n1 [bafetinib]
How it was run: as §1

[2] = compound: Cc1cccc(CC(=O)N2CCc3c2ccc(-c2cn(C)c4ncnc(N)c24)c3F)n1
How it was run: as §1

Row | Target | log2 fold change (lapatinib) | log2 fold change (pictilisib) | log2 fold change (crizotinib) | log2 fold change [1] | log2 fold change (duvelisib) | log2 fold change (gandotinib) | log2 fold change (tozasertib) | log2 fold change (doramapimod) | log2 fold change (bafetinib) | log2 fold change [2]
1 | NFYB (UniProt P25208) | inactive: 0.06 | inactive: 0.008 | inactive: 0.021 | inactive: 0.054 | inactive: -0.002 | inactive: 0.09 | inactive: 0.05 | inactive: 0.009 | inactive: 0.072 | inactive: -0.092
2 | NEMF (UniProt O60524) | inactive: -0.006 | inactive: -0.046 | inactive: -0.028 | inactive: 0.035 | inactive: 0.001 | inactive: -0.018 | inactive: -0.012 | inactive: 0.001 | inactive: -0.01 | inactive: 0.042
3 | NFATC4 isoform 2 (UniProt Q14934) | inactive: 0.039 | inactive: 0.003 | inactive: -0.132 | inactive: -0.187 | inactive: -0.006 | inactive: 0.04 | inactive: 0.084 | inactive: 0.026 | inactive: -0.305 | inactive: 0.192
4 | NDUFB5 (UniProt O43674) | inactive: -0.019 | inactive: 0.016 | inactive: 0.02 | inactive: 0.095 | inactive: -0.002 | inactive: -0.048 | inactive: 0.058 | inactive: 0.005 | inactive: -0.04 | inactive: -0.012
5 | NDUFB3 (UniProt O43676) | inactive: -0.051 | inactive: 0.009 | inactive: 0.043 | inactive: -0.001 | inactive: 0.028 | inactive: -0.042 | inactive: 0.042 | inactive: -0.012 | inactive: 0.065 | inactive: -0.055
6 | NFATC2 (UniProt Q13469) | inactive: -0.003 | inactive: 0.03 | inactive: -0.021 | inactive: 0.085 | inactive: -0.017 | inactive: 0.133 | inactive: 0 | inactive: 0.059 | inactive: -0.02 | inactive: 0.117
7 | NIP7 (UniProt Q9Y221) | inactive: -0.03 | inactive: 0.016 | inactive: -0.008 | inactive: -0.073 | inactive: 0.003 | inactive: 0.003 | inactive: -0.042 | inactive: -0.005 | inactive: -0.029 | inactive: 0.023
8 | NEK1 isoform 3 (UniProt Q96PY6) | inactive: 0.152 | inactive: -0.022 | inactive: -0.126 | inactive: -0.009 | inactive: 0.004 | inactive: -0.022 | inactive: -0.013 | inactive: -0.054 | inactive: -0.011 | inactive: 0.008
9 | NFATC2IP (UniProt Q8NCF5) | inactive: 0.002 | inactive: -0.091 | inactive: 0.027 | inactive: 0.059 | inactive: -0.067 | inactive: 0.039 | inactive: -0.035 | inactive: 0.001 | inactive: -0.169 | inactive: -0.018
10 | NDUFS2 (UniProt O75306) | inactive: -0.023 | inactive: -0.019 | inactive: -0.023 | inactive: 0.015 | inactive: -0.005 | inactive: -0.033 | inactive: -0.016 | inactive: 0.013 | inactive: -0.028 | inactive: 0.012
11 | NDUFAF5 (UniProt Q5TEU4) | inactive: 0.002 | inactive: -0.02 | inactive: -0.044 | inactive: -0.212 | active: -0.286 | inactive: 0.026 | inactive: 0.068 | inactive: 0.129 | inactive: -0.019 | inactive: -0.061
12 | NDUFB8 (UniProt O95169) | inactive: 0.049 | inactive: 0.039 | inactive: 0.015 | inactive: 0.067 | inactive: -0.029 | inactive: -0.025 | inactive: 0.059 | inactive: -0.018 | inactive: -0.014 | inactive: -0.014
13 | NDUFS7 (UniProt O75251) | inactive: -0.021 | inactive: -0.031 | inactive: -0.038 | inactive: -0.012 | inactive: 0.024 | inactive: 0.009 | inactive: 0.038 | inactive: 0.027 | inactive: -0.065 | inactive: 0.036
14 | NENF (UniProt Q9UMX5) | inactive: -0.028 | inactive: -0.001 | inactive: 0.026 | inactive: 0.046 | inactive: 0.05 | inactive: -0.046 | inactive: 0.004 | inactive: 0.011 | inactive: 0.03 | inactive: -0.034
15 | NFYA (UniProt P23511) | inactive: 0.067 | inactive: -0.141 | inactive: 0.027 | inactive: 0.027 | inactive: -0.003 | inactive: 0.005 | inactive: -0.053 | inactive: -0.029 | inactive: 0.125 | inactive: -0.047
16 | NIPBL (UniProt Q6KC79) | inactive: -0.03 | inactive: -0.081 | inactive: -0.034 | inactive: 0.039 | inactive: 0 | inactive: -0.094 | inactive: -0.005 | inactive: 0.033 | inactive: 0.001 | inactive: 0.016
17 | NFX1 (UniProt Q12986) | inactive: -0.027 | inactive: 0.006 | inactive: -0.001 | inactive: 0.035 | inactive: -0.107 | inactive: 0.006 | inactive: -0.123 | inactive: -0.017 | inactive: 0.021 | inactive: 0.083
18 | NHP2 (UniProt Q9NX24) | inactive: 0.04 | inactive: 0.035 | inactive: 0.017 | inactive: -0.203 | inactive: 0.074 | inactive: 0.092 | inactive: 0.057 | inactive: -0.038 | inactive: 0.037 | inactive: 0.058
19 | NIPSNAP3A (UniProt Q9UFN0) | inactive: -0.007 | inactive: -0.031 | inactive: 0.021 | active: 0.466 | inactive: 0.03 | inactive: -0.197 | inactive: -0.011 | inactive: -0.029 | inactive: 0.061 | active: -0.276
20 | NDUFAB1 (UniProt O14561) | inactive: 0.041 | inactive: -0.064 | inactive: 0.032 | inactive: 0.056 | inactive: -0.069 | inactive: 0.009 | inactive: 0.082 | inactive: -0.084 | inactive: -0.055 | inactive: -0.006
21 | NIT1 (UniProt Q86X76) | inactive: 0.028 | inactive: -0.034 | inactive: -0.024 | inactive: -0.089 | inactive: -0.08 | inactive: 0.038 | inactive: -0.008 | inactive: -0.001 | inactive: 0.005 | inactive: 0.017
22 | NFS1 (UniProt Q9Y697) | inactive: -0.039 | inactive: -0.015 | inactive: 0.004 | inactive: -0.034 | inactive: 0.054 | inactive: -0.024 | inactive: 0.058 | inactive: -0.032 | inactive: 0.004 | inactive: 0.009
23 | NKAP (UniProt Q8N5F7) | inactive: -0.022 | inactive: 0.018 | inactive: 0.048 | inactive: -0.024 | inactive: -0.05 | inactive: 0.007 | inactive: 0.091 | inactive: 0.006 | inactive: -0.028 | inactive: 0.014
24 | NEFH (UniProt P12036) | inactive: -0.019 | inactive: -0.048 | inactive: 0.008 | inactive: 0.015 | inactive: -0.041 | inactive: 0.009 | inactive: -0.017 | inactive: -0.008 | inactive: -0.042 | inactive: -0.003
25 | NFKBIB (UniProt Q15653) | inactive: 0.093 | inactive: -0.011 | inactive: -0.055 | active: -0.36 | inactive: 0.004 | inactive: 0.095 | inactive: -0.024 | inactive: 0.024 | inactive: -0.049 | inactive: 0.127
26 | NDUFA12 (UniProt Q9UI09) | inactive: -0.083 | inactive: -0.035 | inactive: -0.015 | inactive: -0.057 | inactive: 0.051 | inactive: 0.024 | inactive: 0.019 | inactive: -0.001 | inactive: 0.062 | inactive: 0.054
27 | NDUFB10 (UniProt O96000) | inactive: -0.034 | inactive: -0.02 | inactive: -0.007 | inactive: 0.013 | inactive: 0.025 | inactive: 0.01 | inactive: -0.025 | inactive: -0.034 | inactive: -0.057 | inactive: -0.008
28 | NELFA (UniProt Q9H3P2) | inactive: -0.031 | inactive: 0.021 | inactive: 0.018 | inactive: 0.06 | inactive: -0.018 | inactive: -0.079 | inactive: 0.048 | inactive: 0.022 | inactive: -0.048 | inactive: -0.003
29 | NDST2 (UniProt P52849) | inactive: -0.06 | inactive: 0.267 | inactive: -0.038 | inactive: 0.172 | inactive: 0.023 | inactive: -0.079 | inactive: -0.155 | inactive: 0.144 | inactive: 0.15 | inactive: 0.005

Another view of part of the listing above:
Row	Target	log2 fold change (lapatinib)	log2 fold change (pictilisib)	log2 fold change (crizotinib)	log2 fold change [1]	log2 fold change (duvelisib)	log2 fold change (gandotinib)	log2 fold change (tozasertib)	log2 fold change (doramapimod)	log2 fold change (bafetinib)	log2 fold change [2]
1	NFYB (UniProt P25208)	inactive: 0.06	inactive: 0.008	inactive: 0.021	inactive: 0.054	inactive: -0.002	inactive: 0.09	inactive: 0.05	inactive: 0.009	inactive: 0.072	inactive: -0.092
2	NEMF (UniProt O60524)	inactive: -0.006	inactive: -0.046	inactive: -0.028	inactive: 0.035	inactive: 0.001	inactive: -0.018	inactive: -0.012	inactive: 0.001	inactive: -0.01	inactive: 0.042
